# Laboratory results reported in PMC8372404 (Frontiers in Neuroscience, 2021).
# Molecular target: [3H]-LCGA-17 binding site in rat brain membranes (putative α2δ)
# Test: [3H]-LCGA-17 radioligand competition binding assay
# Conditions: competition of [3H]-LCGA-17 (16 nM) binding, Table S1
smiles,measurement,value
O=C(CCCN1CCC(O)(c2ccc(Cl)cc2)CC1)c1ccc(F)cc1 [Haloperidol],IC50,> 100 µM
